Measured values published in US20150132301A1, “Combination Therapy for Treatment of Cancer” (OncoMed Pharmaceuticals, Inc., priority 2011, published 2015).
At least one structure is not confirmed: it was looked up by name or label, or the drawing left a doubt.

System: OMP-M8 melanoma tumor
Assay: OMP-M8 melanoma tumor growth in vivo in the presence of a B-Raf inhibitor
Design: species or system NOD/SCID mice
Conditions: dose and method not printed for PLX-4032
Protocol: As shown in Example 1, the OMP-M8 melanoma tumor contains the mutation B-Raf^V600E. The OMP-M8 tumor was originally obtained from a patient who initially responded to B-Raf inhibitor therapy but who subsequently developed resistance to the B-Raf inhibitor. OMP-M8 melanoma tumor cells (20,000 cells) were injected subcutaneously into 6-8 week old NOD/SCID mice. Tumors were allowed to grow until the average tumor size was approximately 150 mm^3. The animals were randomized into four groups (n=10 per group) and treated with B-Raf inhibitor PLX-4720 at doses of 5 mg/kg, 15 mg/kg, and 45 mg/kg, and methyl cellulose vehicle control (1% v/v). PLX-4720 was administered orally for 5 days each week. Tumor growth was measured with electronic calipers on the indicated days after treatment.

CCCS(=O)(=O)Nc1ccc(F)c(C(=O)c2c[nH]c3ncc(-c4ccc(Cl)cc4)cc23)c1F [PLX-4032, vemurafenib]
response of tumor to B-Raf inhibitor: resistant
